Test in all cases: co-IP
In test [1] the target is T1, STX5 (human (endogenous in HEK293T)) (UniProt Q13190).
T1 sequence: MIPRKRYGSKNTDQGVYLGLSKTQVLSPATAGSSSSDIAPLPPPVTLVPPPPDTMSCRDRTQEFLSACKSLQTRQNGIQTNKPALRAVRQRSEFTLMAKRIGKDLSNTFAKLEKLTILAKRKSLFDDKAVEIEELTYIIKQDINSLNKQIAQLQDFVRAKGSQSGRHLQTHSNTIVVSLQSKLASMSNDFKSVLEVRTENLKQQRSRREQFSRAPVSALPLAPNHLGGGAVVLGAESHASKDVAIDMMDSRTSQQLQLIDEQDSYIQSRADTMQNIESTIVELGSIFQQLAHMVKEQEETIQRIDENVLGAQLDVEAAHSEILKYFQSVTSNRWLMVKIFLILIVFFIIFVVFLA

The target in test [2] is T2, GS15 (BET1L) (human (endogenous in HEK293T)) (UniProt Q9NYM9).
T2 sequence: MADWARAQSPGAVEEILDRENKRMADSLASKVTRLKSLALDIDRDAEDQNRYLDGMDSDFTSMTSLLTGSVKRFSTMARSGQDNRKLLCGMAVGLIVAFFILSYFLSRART

The target in test [3] is SNAP29 (human (endogenous in HEK293T)) (UniProt O95721).
Test [4] concerns the target T3, SNAP29 (human (endogenous in HEK293T)), O95721.
T3 chain: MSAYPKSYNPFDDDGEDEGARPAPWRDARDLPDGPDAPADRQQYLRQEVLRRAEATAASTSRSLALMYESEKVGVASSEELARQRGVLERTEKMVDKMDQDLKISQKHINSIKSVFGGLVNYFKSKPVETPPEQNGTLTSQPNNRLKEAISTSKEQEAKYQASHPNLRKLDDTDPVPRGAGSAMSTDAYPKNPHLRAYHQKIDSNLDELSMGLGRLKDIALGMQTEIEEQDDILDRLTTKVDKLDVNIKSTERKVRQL
As to conditions: remark: other sources report otherwise.

Experimental findings from publication doi:10.1101/2022.05.24.493304 are described below.

Results are given in words; binding and its absence hold for the method and conditions named. Binding seen in cells or lysates may run through a third protein. Some entries that bind do so weakly or less than the wild type.

B1: VTI1B (protein, UniProt Q9UEU0 1-232)
chain: MASSAASSEHFEKLHEIFRGLHEDLQGVPERLLGTAGTEEKKKLIRDFDEKQQEANETLAEMEEELRYAPLSFRNPMMSKLRNYRKDLAKLHREVRSTPLTATPGGRGDMKYGIYAVENEHMNRLQSQRAMLLQGTESLNRATQSIERSHRIATETDQIGSEIIEELGEQRDQLERTKSRLVNTSENLSKSRKILRSMSRKVTTNKLLLSIIILLELAILGGLVYYKFFRSH
As for B1, the binding entry in test [1] is given as “binds”.

B2: STX5 (protein, UniProt Q13190 1-355)
chain: T1 sequence
As to B2, the binding entry in test [2] and in test [3] was “binds” throughout.

B3: YKT6 (protein, UniProt O15498 1-198)
chain: MKLYSLSVLYKGEAKVVLLKAAYDVSSFSFFQRSSVQEFMTFTSQLIVERSSKGTRASVKEQDYLCHVYVRNDSLAGVVIADNEYPSRVAFTLLEKVLDEFSKQVDRIDWPVGSPATIHYPALDGHLSRYQNPREADPMTKVQAELDETKIILHNTMESLLERGEKLDDLVSKSEVLGTQSKAFYKTARKQNSCCAIM
In the case of B3, in test [2], the binding result is given as “binds”.

B4: YKT6, O15498 1-198 (protein)
chain: B3 chain
Turning to B4, the binding entry in test [4] is “no binding”.

B5: COG3 (protein, UniProt Q96JB2 1-828)
chain: MAEAALLLLPEAAAERDAREKLALWDRRPDTTAPLTDRQTDSVLELKAAAENLPVPAELPIEDLCSLTSQSLPIELTSVVPESTEDILLKGFTSLGMEEERIETAQQFFSWFAKLQTQMDQDEGTKYRQMRDYLSGFQEQCDAILNDVNSALQHLESLQKQYLFVSNKTGTLHEACEQLLKEQSELVDLAENIQQKLSYFNELETINTKLNSPTLSVNSDGFIPMLAKLDDCITYISSHPNFKDYPIYLLKFKQCLSKALHLMKTYTVNTLQTLTSQLLKRDPSSVPNADNAFTLFYVKFRAAAPKVRTLIEQIELRSEKIPEYQQLLNDIHQCYLDQRELLLGPSIACTVAELTSQNNRDHCALVRSGCAFMVHVCQDEHQLYNEFFTKPTSKLDELLEKLCVSLYDVFRPLIIHVIHLETLSELCGILKNEVLEDHVQNNAEQLGAFAAGVKQMLEDVQERLVYRTHIYIQTDITGYKPAPGDLAYPDKLVMMEQIAQSLKDEQKKVPSEASFSDVHLEEGESNSLTKSGSTESLNPRPQTTISPADLHGMWYPTVRRTLVCLSKLYRCIDRAVFQGLSQEALSACIQSLLGASESISKNKTQIDGQLFLIKHLLILREQIAPFHTEFTIKEISLDLKKTRDAAFKILNPMTVPRFFRLNSNNALIEFLLEGTPEIREHYLDSKKDVDRHLKSACEQFIQQQTKLFVEQLEEFMTKVSALKTMASQGGPKYTLSQQPWAQPAKVNDLAATAYKTIKTKLPVTLRSMSLYLSNKDTEFILFKPVRNNIQQVFQKFHALLKEEFSPEDIQIIACPSMEQLSLLLLVSK
As to B5, the binding entry in test [3] is given as “no binding”.
